Measured data: PubChem BioAssay AID1224830 (NIAID, 2016)

Assay: 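Genes whose knock-down alters the TNF-alpha reporter response to LPS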 (primary screen)
Cells: human THP-1 monocytic leukaemia cells, TNF dual-luciferase reporter clone, PMA-differentiated to macrophage-like cells
Reagent: siRNA pool against human genes, 50 nM
Time to read-out: LPS for 4 h, given about 3 days after siRNA transfection
Challenge: bacterial LPS (TLR4 ligand), 10 ng/ml
Measured: 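Ratio of firefly to renilla light, scaled to the plate median and expressed as a robust z-score per replicate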
Scale: TNF reporter robust z-score: higher = stronger TNF reporter response to LPS
Call rule: 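a well is active when its z-score exceeds 2.8 or falls below -1.5; control wells carry no call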
In all, the deposit lists about 18,000 reagents; shown is an unselected part. About 2,900 of all reagents (16%) were called active. 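Calls are made per well; low scores hint the gene aids the LPS response, high scores that it dampens it.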 Repeated entries: four replicate wells of each siRNA pool.

| gene | TNF reporter robust z-score | Call |
| --- | --- | --- |
| AJAP1 | 0.88 | inactive |
| AJAP1 | 1.13 | inactive |
| AJAP1 | -0.11 | inactive |
| AJAP1 | 0.11 | inactive |
| RAD50 | -0.32 | inactive |
| RAD50 | 0.81 | inactive |
| RAD50 | -0.63 | inactive |
| RAD50 | -0.27 | inactive |
| MANEAL | 0.58 | inactive |
| MANEAL | -1.03 | inactive |
| MANEAL | -0.89 | inactive |
| MANEAL | -0.75 | inactive |
| FLT4 | -1.24 | inactive |
| FLT4 | -1.68 | active |
| FLT4 | -1.52 | active |
| FLT4 | -1.37 | inactive |
| SLC38A7 | 0.79 | inactive |
| SLC38A7 | 1.46 | inactive |
| SLC38A7 | 1.14 | inactive |
| SLC38A7 | 0.97 | inactive |
| ESR1 | 1.26 | inactive |
| ESR1 | 2.34 | inactive |
| ESR1 | 1.01 | inactive |
| ESR1 | 3.73 | active |
| MIA | -0.24 | inactive |
| MIA | -0.07 | inactive |
| MIA | -0.64 | inactive |
| SMPD1 | -0.72 | inactive |
| SMPD1 | 0.21 | inactive |
| SMPD1 | -0.58 | inactive |
| SMPD1 | -0.49 | inactive |
| HABP2 | 0.63 | inactive |
| HABP2 | -0.42 | inactive |
| HABP2 | 0.73 | inactive |
| HABP2 | 0.26 | inactive |
| TRIB3 | 0.01 | inactive |
| TRIB3 | -0.45 | inactive |
| TRIB3 | -0.31 | inactive |
| TRIB3 | -1.22 | inactive |
| BEX2 | -0.47 | inactive |
| BEX2 | 0 | inactive |
| BEX2 | 0.24 | inactive |
| BEX2 | -0.27 | inactive |
| CASKIN1 | -1.95 | active |
| CASKIN1 | -1.72 | active |
| CASKIN1 | -1.58 | active |
| CASKIN1 | -1.37 | inactive |
| SYNPO2 | -1.41 | inactive |
| SYNPO2 | -0.12 | inactive |
| SYNPO2 | 0.63 | inactive |
| SYNPO2 | 3.87 | active |
| ZNF532 | -0.65 | inactive |
| ZNF532 | -0.97 | inactive |
| ZNF532 | -0.81 | inactive |
| ZNF532 | -0.8 | inactive |
| CUZD1 | 0.84 | inactive |
| CUZD1 | -0.35 | inactive |
| CUZD1 | -1.18 | inactive |
| CUZD1 | -1.19 | inactive |
| IL23A | 3.02 | active |
| IL23A | 5.29 | active |
| IL23A | 0.49 | inactive |
| IL23A | -0.2 | inactive |
| COQ8B | 0.44 | inactive |
| COQ8B | 0.35 | inactive |
| COQ8B | 0.07 | inactive |
| COQ8B | -0.56 | inactive |
| MND1 | 1.01 | inactive |
| MND1 | -0.48 | inactive |
| MND1 | -0.31 | inactive |
| MND1 | -0.65 | inactive |
| LIMS1 | -0.37 | inactive |
| LIMS1 | 0.28 | inactive |
| LIMS1 | 0.09 | inactive |
| LIMS1 | 0.22 | inactive |
| FAM171A1 | -0.25 | inactive |
| FAM171A1 | 0.09 | inactive |
| FAM171A1 | 0.01 | inactive |
| FAM171A1 | 0.28 | inactive |
| TRIP10 | -0.15 | inactive |
| TRIP10 | 0.89 | inactive |
| TRIP10 | 0.6 | inactive |
| TRIP10 | 1.67 | inactive |
| NAA30 | 0.52 | inactive |
| NAA30 | 0.14 | inactive |
| NAA30 | 0.23 | inactive |
| NAA30 | -0.56 | inactive |
| RO60 | 0.63 | inactive |
| RO60 | -0.02 | inactive |
| RO60 | 0.15 | inactive |
| RO60 | -0.04 | inactive |
| CDK14 | -2.02 | active |
| CDK14 | -0.69 | inactive |
| CDK14 | -1.14 | inactive |
| CDK14 | -0.77 | inactive |
| NUP37 | 0.47 | inactive |
| NUP37 | -0.06 | inactive |
| NUP37 | 0.73 | inactive |
| NUP37 | 0.55 | inactive |
| TYW1 | -0.84 | inactive |
| TYW1 | 1.84 | inactive |
| TYW1 | 0.56 | inactive |
| TYW1 | 0.37 | inactive |
| TBL2 | -0.87 | inactive |
| TBL2 | -0.94 | inactive |
| TBL2 | -1.01 | inactive |
| TBL2 | -1.13 | inactive |
| GPSM3 | 0.17 | inactive |
| GPSM3 | -0.96 | inactive |
| GPSM3 | -0.17 | inactive |
| GPSM3 | 0.1 | inactive |
